Assay results reported in patent publication CN111171150A.
Results are given in words; binding and its absence hold for the method and conditions named. Some results given as binding are weak or reduced against the parent protein; the word gives no strength.

Molecular target: mfTSLP (cynomolgus monkey (Macaca fascicularis))
Experiment: phage-displayed scFv library panned on solid-phase TSLP1-m-his; binding test not described

B1: S2B1 (单链抗体, scFv clone) (scFv, V domains shown)
VH: EVKLQQSGAELVRPGSSVKISCKASGYAFSNYWMNWVKQRPGQGLEWIGQIFPGDGDTDYNGKFKGKATLTADKSSSTAYMQLSSLTSEDSAVYFCARAGYYRGYYAMDYWGQGTSVTVSA
VL: EIVLTQSPALMAASPGEKVTITCSVSSSISSSNLHWYQQKSETSPKPWIYGTSNLASGVPVRFSGSGSGTSYSLTISSMEAEDAATYYCQQWSSYPLTFGAGTKLEIK
With B1 the binding was “binds”.
